A short description of this data set: Fasting serum IGF-I, IGF-II and leptin and BMI SDS in short SGA children on rhGH therapy. Format: in vivo, human. The source says:
All subjects were born SGA, had marked short stature (height approximately—3 standard deviation score (SDS)) with a height velocity<25th percentile for >1 year prior to starting rhGH therapy. SGA was defined as a birth weight<10th percentile for gestational age. Additional enrolment criteria for inclusion into the study included; no change in Tanner pubertal stage and/or testicular volumes throughout the study period, normal GH response to clonidine stimulation (defined as a GH level≧7 μgm/L), absence of both islet cell antibodies (<10 Juvenile Diabetes Foundation units) and insulin autoantibodies to exclude type 1 prediabetes. Prepubertal subjects were defined as males with a testicular volume<4 ml and girls with tanner stage 1 breast development. Subjects were excluded if; a chromosomal, intrauterine infection or syndromal cause for SGA was identified, a first degree relative had type 2 diabetes mellitus, or medical therapy was taken that was known to influence SI. Subjects were recruited from the Endocrinology Clinics at Starship Children's Hospital. […] Body mass index (BMI) was used as a measure of relative obesity and expressed as BMI SDS.
Plasma glucose concentration was measured using a Hitachi 911 automated random access analyser (Tokyo, Japan) with an interassay coefficient variation of 1.2% (Trinder P. Determination of blood glucose using an oxidase-peroxidase system with a non-carcinogenic chromogen. J Clin Pathol 1995; 22: 158-61). Insulin was determined by Abbotts IMX microparticle enzyme immunoassay with an interassay coefficient of variation of <5%. Plasma IGF-I was measured using an established IGF binding protein blocked radioimmunoassay (Blum et al. Radioimmunoassays for insulin-like growth factors and their binding proteins. Growth Reg. 1994; 4: (Suppl.) 11-19). […] IGF II was then measured by RIA using a highly specific polyclonal antiserum (Blum et al. A specific radioimmunoassay for insulin-like growth factor II. The interference of IGF binding proteins can be blocked by excess IGF-I. Acta Endcrinol (Copenh) 1988; 129:427-435). […]

Here are results for one substance from patent US20050043231A1, “Therapy for growth hormone induced insulin resistance in juveniles with growth disorders” (priority 2001, published 2005).

With “rhGH: recombinant human growth hormone given to short SGA children”, the “Body mass index SDS” value (during rhGH treatment, −0.7±0.5 before) is given as −0.7±0.5. For the same substance, the fasting serum leptin (with rhGH treatment, 10.9±5.6 pretreatment, no change) was found to be 7.1 ± 3.0 mg/L. For the same substance, the “fasting serum IGF-II level” value (with rhGH treatment, 539±52 pretreatment, no change) is on record as 566±35 μgm/l.
